PubChem BioAssay AID1224830 | NIAID, 2016
Here is a random part of about 18,000 deposited reagents. In the full data, about 2,900 (16%) got an active call. 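Calls are made per well; low scores hint the gene aids the LPS response, high scores that it dampens it.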 Repeated entries: four replicate wells of each siRNA pool.

Aim: 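Genes whose knock-down alters the TNF-alpha reporter response to LPS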 (primary screen)
Cells: human THP-1 monocytic leukaemia cells, TNF dual-luciferase reporter clone, PMA-differentiated to macrophage-like cells
Reagent: siRNA pool against human genes, 50 nM
Duration: LPS for 4 h, given about 3 days after siRNA transfection
Treatment: bacterial LPS (TLR4 ligand), 10 ng/ml
Measured: 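TNF firefly reporter luminescence divided by renilla, normalised to the plate median, then turned into a robust z-score for each replicate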
Scale: TNF reporter robust z-score: higher = stronger TNF reporter response to LPS
Call rule: 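Each well counts as active if its z-score is over 2.8 or under -1.5; controls are left without a call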

TSHZ1: TNF reporter robust z-score = -0.45; activity call = inactive
TSHZ1: TNF reporter robust z-score = 0.01; activity call = inactive
TSHZ1: TNF reporter robust z-score = 1.13; activity call = inactive
TSHZ1: TNF reporter robust z-score = 1.8; activity call = inactive
LRRC61: TNF reporter robust z-score = -0.44; activity call = inactive
LRRC61: TNF reporter robust z-score = 0.86; activity call = inactive
LRRC61: TNF reporter robust z-score = -0.76; activity call = inactive
LRRC61: TNF reporter robust z-score = -0.6; activity call = inactive
OR51B4: TNF reporter robust z-score = 0.01; activity call = inactive
OR51B4: TNF reporter robust z-score = -0.02; activity call = inactive
OR51B4: TNF reporter robust z-score = -0.25; activity call = inactive
OR51B4: TNF reporter robust z-score = -0.17; activity call = inactive
REEP4: TNF reporter robust z-score = -0.22; activity call = inactive
REEP4: TNF reporter robust z-score = -0.09; activity call = inactive
REEP4: TNF reporter robust z-score = -0.93; activity call = inactive
REEP4: TNF reporter robust z-score = 0.44; activity call = inactive
CHD7: TNF reporter robust z-score = -0.95; activity call = inactive
CHD7: TNF reporter robust z-score = 0.06; activity call = inactive
CHD7: TNF reporter robust z-score = 0.23; activity call = inactive
CHD7: TNF reporter robust z-score = -0.28; activity call = inactive
MTMR8: TNF reporter robust z-score = -0.29; activity call = inactive
MTMR8: TNF reporter robust z-score = -0.9; activity call = inactive
MTMR8: TNF reporter robust z-score = -0.76; activity call = inactive
MTMR8: TNF reporter robust z-score = -0.01; activity call = inactive
CORO6: TNF reporter robust z-score = -0.32; activity call = inactive
CORO6: TNF reporter robust z-score = 0.93; activity call = inactive
CORO6: TNF reporter robust z-score = 1.07; activity call = inactive
CORO6: TNF reporter robust z-score = 0.91; activity call = inactive
MARCHF7: TNF reporter robust z-score = 0.47; activity call = inactive
MARCHF7: TNF reporter robust z-score = 0.7; activity call = inactive
MARCHF7: TNF reporter robust z-score = 3.01; activity call = active
MARCHF7: TNF reporter robust z-score = 2.48; activity call = inactive

2 of these entries, reformatted:
target gene	TNF reporter robust z-score	activity call
CHD7	0.23	inactive
CHD7	-0.28	inactive
